PubChem BioAssay AID652259 | Drosophila RNAi Screening Center – 2013

Assay: 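Genome-wide hunt for genes that control Wingless pathway activity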 (primary screen)
Cells: Drosophila clone 8 imaginal disc epithelial cells
Reagent: long dsRNA against Drosophila genes
Conditions: pathway stimulated by co-transfected Wingless expression plasmid
Measurement: 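Dual luciferase reads per well after Wingless plasmid stimulation: reporter firefly light and Renilla control light; activity is firefly divided by Renilla, a ratio not deposited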
Scale: firefly reporter light: higher = more Wg reporter light, before normalisation; Renilla control light: higher = more transfected or surviving cells
Call rule: 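a knock-down is a candidate when at least two out of four statistical tests show it departing from its plate mean; one test alone signals a weak candidate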
Meaning of the calls: active = candidate regulator (raises or lowers reporter); inactive = not a candidate
The screen tested about 22,000 reagents; this is an unselected part of those with a known target gene and a result. In the full data, 233 (1.1%) got an active call. 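Light values are raw, unnormalised plate reads; the ratio scores behind the reporter calls were not deposited.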 The record does not give: the amount of reagent, the time to read-out, the dose of the treatment.

gene | amplicon | firefly reporter light, replicate 1 | firefly reporter light, replicate 2 | Renilla control light, replicate 1 | Renilla control light, replicate 2 | outcome
Mical (GeneID 41225) | DRSC14349 | 9009 | – | 1579 | – | inactive
Mical (GeneID 41225) | DRSC14351 | 13716 | – | 2547 | – | inactive
Mical (GeneID 41225) | DRSC15365 | 11892 | – | 2234 | – | inactive
Mical (GeneID 41225) | DRSC15366 | 10243 | – | 1924 | – | inactive
Polr1E (GeneID 42201) | DRSC14506 | 10560 | – | 3232 | – | inactive
Polr1E (GeneID 42201) | DRSC15358 | 2442 | 5863 | 1243 | 2284 | inactive
Nhe2 (GeneID 35376) | DRSC03172 | 2073 | 4604 | 641 | 2294 | inactive
Nhe2 (GeneID 35376) | DRSC03377 | 1895 | 5060 | 577 | 2259 | inactive
Prp16 (GeneID 32373) | DRSC19538 | 3698 | 3778 | 832 | 1320 | inactive
Prp16 (GeneID 32373) | DRSC19542 | 13286 | – | 5353 | – | inactive
RpL9 (GeneID 34526) | DRSC03418 | 3572 | 8736 | 897 | 3348 | inactive
CG31294 (GeneID 318666) | DRSC22217 | 6.76e5 | 7.41e5 | 3.00e5 | 3.35e5 | inactive
CycY (GeneID 34593) | DRSC02420 | 8135 | – | 2531 | – | inactive
CG1979 (GeneID 40837) | DRSC12495 | 3428 | – | 1265 | – | inactive
CG5194 (GeneID 39037) | DRSC10492 | 7098 | – | 2640 | – | inactive
CG10098 (GeneID 40851) | DRSC12509 | 6403 | – | 2498 | – | inactive
fon (GeneID 35211) | DRSC02507 | 8432 | – | 2553 | – | inactive
CG11726 (GeneID 39275) | DRSC09858 | 8693 | – | 3472 | – | inactive
CG14708 (GeneID 41383) | DRSC14930 | 13029 | – | 1680 | – | inactive
CG34331 (GeneID 33011) | DRSC20679 | 17757 | – | 10643 | – | inactive
Tti1 (GeneID 41189) | DRSC15163 | 9952 | – | 2360 | – | inactive
I-t (GeneID 41414) | DRSC16713 | 23232 | – | 3841 | – | inactive
CR46300 (GeneID 3885581) | DRSC12467 | 2188 | – | 1447 | – | inactive
CG1371 (GeneID 36053) | DRSC06409 | 7648 | – | 2592 | – | inactive
CG5001 (GeneID 33308) | DRSC00673 | 3440 | 5250 | 1634 | 1957 | inactive
Su(H) (GeneID 34881) | DRSC03445 | 1907 | 3312 | 1000 | 2164 | inactive
CG18265 (GeneID 39947) | DRSC10310 | 3757 | – | 1868 | – | inactive
Ir76b (GeneID 40198) | DRSC10831 | 16316 | – | 4904 | – | inactive
CG32590 (GeneID 318103) | DRSC19594 | 23232 | – | 12098 | – | inactive
CG8679 (GeneID 35395) | DRSC03109 | 3172 | 6548 | 887 | 2817 | inactive
Use1 (GeneID 39051) | DRSC10180 | 1306 | 9797 | 1469 | 4085 | inactive
TwdlV (GeneID 40537) | DRSC12226 | 16124 | – | 5202 | – | inactive
Rrp40 (GeneID 319033) | DRSC00074 | 27978 | – | 12277 | – | inactive
Tbca (GeneID 43737) | DRSC15395 | 1612 | 3383 | 598 | 1027 | inactive
Ccdc114 (GeneID 42024) | DRSC15025 | 16248 | – | 2539 | – | inactive
ATP8B (GeneID 41469) | DRSC12883 | 3097 | – | 835 | – | inactive
ATP8B (GeneID 41469) | DRSC14961 | 15418 | – | 4937 | – | inactive
MED30 (GeneID 38078) | DRSC08516 | 13977 | – | 2327 | – | inactive
Coop (GeneID 35677) | DRSC06604 | 11721 | – | 4026 | – | inactive
CG30385 (GeneID 246585) | DRSC06031 | 2005 | 7256 | 645 | 3245 | inactive
CG14795 (GeneID 31109) | DRSC18513 | 28816 | – | 12701 | – | inactive
CG3927 (GeneID 37576) | DRSC04433 | 2786 | 9906 | 664 | 2396 | inactive
CG3927 (GeneID 37576) | DRSC22813 | 5.13e5 | 5.32e5 | 2.33e5 | 2.74e5 | inactive
CG5321 (GeneID 32399) | DRSC19940 | 26883 | – | 11062 | – | inactive
CG5321 (GeneID 32399) | DRSC22802 | 4.95e5 | 5.04e5 | 2.36e5 | 2.86e5 | inactive
mei-9 (GeneID 31373) | DRSC18792 | 14532 | – | 5938 | – | inactive
hpRNA:CR32205 (GeneID 3772102) | DRSC09610 | 2418 | – | 1580 | – | inactive
hpRNA:CR32205 (GeneID 3772102) | DRSC09890 | 9385 | – | 4192 | – | inactive
Tsp42Ea (GeneID 59178) | DRSC04982 | 3424 | 7728 | 777 | 2827 | inactive
Tsp42Ea (GeneID 59178) | DRSC06792 | 2535 | 9299 | 738 | 3136 | inactive

Limited to “Renilla control light, replicate 1” (6 entries from above):
Use1 (GeneID 39051) [DRSC10180] = 1469
TwdlV (GeneID 40537) [DRSC12226] = 5202
Rrp40 (GeneID 319033) [DRSC00074] = 12277
Tbca (GeneID 43737) [DRSC15395] = 598
Ccdc114 (GeneID 42024) [DRSC15025] = 2539
ATP8B (GeneID 41469) [DRSC12883] = 835
